Results taken from article PMC10259508.
Results are given in words; binding and its absence hold for the method and conditions named. Binding seen in cells or lysates may run through a third protein. Some binding calls cover weakened binding; strength is not graded here. Where a sequence is shown, tags or fusion partners need not be part of it.

Assays:
[1] = target: T1, DNA binding domain of FOXM1 (235-347 aa) (UniProt Q08050); assay: co-IP; HEK293T cells transfected with the tagged constructs, 10 uM MG132 for 8 hours before harvest; lysis in EBC buffer (50 mM Tris pH 7.5, 120 mM NaCl, 0.5% NP-40); anti-HA or anti-FLAG agarose beads, 3 hours at 4 °C; washed with NETN buffer; immunoblot; some panels with DMSO or RCM-1 (10 uM) and LMB (25 nM) for 24 hours
T1 sequence: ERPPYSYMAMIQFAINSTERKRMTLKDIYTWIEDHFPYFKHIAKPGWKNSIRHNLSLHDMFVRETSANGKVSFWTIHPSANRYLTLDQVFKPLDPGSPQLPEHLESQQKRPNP

[2] = target: T2, Forkhead box M1 (FOXM1), FLAG-tagged (UniProt Q08050); assay: as above
T2 sequence: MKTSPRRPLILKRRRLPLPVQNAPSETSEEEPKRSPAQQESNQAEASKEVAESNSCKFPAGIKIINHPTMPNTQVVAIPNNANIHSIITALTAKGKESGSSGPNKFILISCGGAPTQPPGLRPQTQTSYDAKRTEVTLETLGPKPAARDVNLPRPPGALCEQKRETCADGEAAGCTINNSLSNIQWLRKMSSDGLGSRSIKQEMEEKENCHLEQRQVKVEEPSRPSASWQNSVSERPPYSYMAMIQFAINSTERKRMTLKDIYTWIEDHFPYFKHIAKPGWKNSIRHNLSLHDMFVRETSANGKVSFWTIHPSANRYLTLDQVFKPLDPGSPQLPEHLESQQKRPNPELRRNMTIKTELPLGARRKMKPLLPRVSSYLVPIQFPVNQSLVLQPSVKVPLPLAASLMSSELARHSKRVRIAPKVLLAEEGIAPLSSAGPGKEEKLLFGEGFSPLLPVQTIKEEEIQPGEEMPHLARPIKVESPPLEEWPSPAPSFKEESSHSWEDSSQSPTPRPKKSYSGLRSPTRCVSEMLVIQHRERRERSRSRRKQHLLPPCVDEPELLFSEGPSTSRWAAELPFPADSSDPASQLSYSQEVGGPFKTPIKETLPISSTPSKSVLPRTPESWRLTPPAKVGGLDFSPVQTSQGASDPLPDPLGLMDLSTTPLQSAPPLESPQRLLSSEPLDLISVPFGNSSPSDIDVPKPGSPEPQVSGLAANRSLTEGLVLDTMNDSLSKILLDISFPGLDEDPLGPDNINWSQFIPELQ

[3] = target: T3, FOXM1 bait of the GST pull-down (UniProt Q08050); assay: pull-down; GST pull-down from lysate of HEK293T cells transfected with RNF112-HA plasmid; immunoblot of whole-cell lysates and pull-down products
T3 sequence: T2 sequence

B1: RING finger protein 112 (RNF112), HA-tagged (enzyme, UniProt Q9ULX5 1-631)
chain: MPRPALSVTSFCHRLGKRERKQSFMGNSGNSWSHTPFPKLELGLGPQPMAPRELPTCSICLERLRDPISLDCGHDFCIRCFSTHRLPGCEPPCCPECRKICKQKRGLRSLGEKMKLLPQRPLPPALQETCPVRAEPLLLVRINASGGLILRMGAINRCLKHPLARDTPVCLLAVLGEQHSGKSFLLNHLLQGLPGLESGEGGRPRGGEASLQGCRWGANGLARGIWMWSHPFLLGKEGKKVAVFLVDTGDAMSPELSRETRIKLCALTTMLSSYQILSTSQELKDTDLDYLEMFVHVAEVMGKHYGMVPIQHLDLLVRDSSHPNKAGQGHVGNIFQRLSGRYPKVQELLQGKRARCCLLPAPGRRRMNQGHASPGDTDDDFRHLLGAYVSDVLSAAPQHAKSRCQGYWNEGRAVARGDRRLLTGQQLAQEIKNLSGWMGRTGPGFTSPDEMAAQLHDLRKVEAAKREFEEYVRQQDVATKRIFSALRVLPDTMRNLLSTQKDAILARHGVALLCKGRDQTLEALEAELQATAKAFMDSYTMRFCGHLAAVGGAVGAGLMGLAGGVVGAGMAAAALAAEAGMVAAGAAVGATGAAVVGGGVGAGLAATVGCMEKEEDERLLEGDREPLLQEE
- binding [1]: binds
- binding [2]: binds
- binding [3]: binds

B2: N-terminus of RNF112 (1-147 aa) (domain or fragment, UniProt Q9ULX5 1-147)
chain: MPRPALSVTSFCHRLGKRERKQSFMGNSGNSWSHTPFPKLELGLGPQPMAPRELPTCSICLERLRDPISLDCGHDFCIRCFSTHRLPGCEPPCCPECRKICKQKRGLRSLGEKMKLLPQRPLPPALQETCPVRAEPLLLVRINASGG
- binding [2]: binds
